In ChEMBL document CHEMBL1157379, “Transcriptional response of Candida parapsilosis following exposure to farnesol” (2007):
This continues a long series; more values of the same kind are listed elsewhere.

Tests used:
Assay type in all cases: functional
Candida parapsilosis [1] = experiment: Increase in YCP4 gene expression in Candida parapsilosis CLIB214 at 50 uM after 2 hrs by microarray based transcriptional profiling relative to control
Candida parapsilosis [2] = experiment: Increase in CGD gene ortholog accession number orf19.5015 expression in Candida parapsilosis CLIB214 at 50 uM after 2 hrs by microarray based transcriptional profiling relative to control
Candida parapsilosis [3] = experiment: Increase in GenBank accession number NP_943635.1 expression in Candida parapsilosis CLIB214 at 50 uM after 2 hrs by microarray based transcriptional profiling relative to control
Candida parapsilosis [4] = experiment: Decrease in CGD gene ortholog accession number orf19.100 expression in Candida parapsilosis CLIB214 at 50 uM after 2 hrs by microarray based transcriptional profiling relative to control
Candida parapsilosis [5] = experiment: Increase in CGD gene ortholog accession number orf19.4757 expression in Candida parapsilosis CLIB214 at 50 uM after 2 hrs by microarray based transcriptional profiling relative to control
Candida parapsilosis [6] = experiment: Increase in CGD gene ortholog accession number orf19.3023 expression in Candida parapsilosis CLIB214 at 50 uM after 2 hrs by microarray based transcriptional profiling relative to control
Candida parapsilosis [7] = experiment: Increase in CGD gene ortholog accession number orf19.5544 expression in Candida parapsilosis CLIB214 at 50 uM after 2 hrs by microarray based transcriptional profiling relative to control
Candida parapsilosis [8] = experiment: Increase in MVD gene expression in Candida parapsilosis CLIB214 at 50 uM after 2 hrs by microarray based transcriptional profiling relative to control
Candida parapsilosis [9] = experiment: Decrease in CGD gene ortholog accession number orf19.6171 expression in Candida parapsilosis CLIB214 at 50 uM after 2 hrs by microarray based transcriptional profiling relative to control
Candida parapsilosis [10] = experiment: Decrease in CGD gene ortholog accession number orf19.3063 expression in Candida parapsilosis CLIB214 at 50 uM after 2 hrs by microarray based transcriptional profiling relative to control
Candida parapsilosis [11] = experiment: Decrease in CGD gene ortholog accession number orf19.5755 expression in Candida parapsilosis CLIB214 at 50 uM after 2 hrs by microarray based transcriptional profiling relative to control
Candida parapsilosis [12] = experiment: Decrease in CGD gene ortholog accession number orf19.538 expression in Candida parapsilosis CLIB214 at 50 uM after 2 hrs by microarray based transcriptional profiling relative to control
Candida parapsilosis [13] = experiment: Decrease in DAG7 gene expression in Candida parapsilosis CLIB214 at 50 uM after 2 hrs by microarray based transcriptional profiling relative to control
Candida parapsilosis [14] = experiment: Increase in CGD gene ortholog accession number orf19.4243 expression in Candida parapsilosis CLIB214 at 50 uM after 2 hrs by microarray based transcriptional profiling relative to control
Candida parapsilosis [15] = experiment: Increase in CGD gene ortholog accession number orf19.4963 expression in Candida parapsilosis CLIB214 at 50 uM after 2 hrs by microarray based transcriptional profiling relative to control
Candida parapsilosis [16] = experiment: Increase in GenBank accession number NP_943643.1 expression in Candida parapsilosis CLIB214 at 50 uM after 2 hrs by microarray based transcriptional profiling relative to control
Candida parapsilosis [17] = experiment: Increase in GenBank accession number NP_943636.1 expression in Candida parapsilosis CLIB214 at 50 uM after 2 hrs by microarray based transcriptional profiling relative to control
Candida parapsilosis [18] = experiment: Increase in GenBank accession number NP_943637.1 expression in Candida parapsilosis CLIB214 at 50 uM after 2 hrs by microarray based transcriptional profiling relative to control
Candida parapsilosis [19] = experiment: Increase in CGD gene ortholog accession number orf19.4371 expression in Candida parapsilosis CLIB214 at 50 uM after 2 hrs by microarray based transcriptional profiling relative to control
Candida parapsilosis [20] = experiment: Increase in CGD gene ortholog accession number orf19.7196 expression in Candida parapsilosis CLIB214 at 50 uM after 2 hrs by microarray based transcriptional profiling relative to control
Candida parapsilosis [21] = experiment: Increase in CGD gene ortholog accession number orf19.3481 expression in Candida parapsilosis CLIB214 at 50 uM after 2 hrs by microarray based transcriptional profiling relative to control
Candida parapsilosis [22] = experiment: Increase in ERB1 gene expression in Candida parapsilosis CLIB214 at 50 uM after 2 hrs by microarray based transcriptional profiling relative to control
Candida parapsilosis [23] = experiment: Increase in CGD gene ortholog accession number orf19.6019 expression in Candida parapsilosis CLIB214 at 50 uM after 2 hrs by microarray based transcriptional profiling relative to control
Candida parapsilosis [24] = experiment: Increase in NOC2 gene expression in Candida parapsilosis CLIB214 at 50 uM after 2 hrs by microarray based transcriptional profiling relative to control
Candida parapsilosis [25] = experiment: Increase in CGD gene ortholog accession number orf19.7290 expression in Candida parapsilosis CLIB214 at 50 uM after 2 hrs by microarray based transcriptional profiling relative to control
Candida parapsilosis [26] = experiment: Decrease in CGD gene ortholog accession number orf19.3649 expression in Candida parapsilosis CLIB214 at 50 uM after 2 hrs by microarray based transcriptional profiling relative to control
Candida parapsilosis [27] = experiment: Decrease in CTN1 gene expression in Candida parapsilosis CLIB214 at 50 uM after 2 hrs by microarray based transcriptional profiling relative to control
Candida parapsilosis [28] = experiment: Decrease in TEM1 gene expression in Candida parapsilosis CLIB214 at 50 uM after 2 hrs by microarray based transcriptional profiling relative to control
Candida parapsilosis [29] = experiment: Decrease in CGD gene ortholog accession number orf19.5406 expression in Candida parapsilosis CLIB214 at 50 uM after 2 hrs by microarray based transcriptional profiling relative to control
Candida parapsilosis [30] = experiment: Decrease in SDS22 gene expression in Candida parapsilosis CLIB214 at 50 uM after 2 hrs by microarray based transcriptional profiling relative to control
Candida parapsilosis [31] = experiment: Decrease in CGD gene ortholog accession number orf19.5769 expression in Candida parapsilosis CLIB214 at 50 uM after 2 hrs by microarray based transcriptional profiling relative to control
Candida parapsilosis [32] = experiment: Decrease in CGD gene ortholog accession number orf19.4985 expression in Candida parapsilosis CLIB214 at 50 uM after 2 hrs by microarray based transcriptional profiling relative to control
Candida parapsilosis [33] = experiment: Decrease in CGD gene ortholog accession number orf19.292 expression in Candida parapsilosis CLIB214 at 50 uM after 2 hrs by microarray based transcriptional profiling relative to control
Candida parapsilosis [34] = experiment: Decrease in CGD gene ortholog accession number orf19.4637 expression in Candida parapsilosis CLIB214 at 50 uM after 2 hrs by microarray based transcriptional profiling relative to control
Candida parapsilosis [35] = experiment: Decrease in MED8 gene expression in Candida parapsilosis CLIB214 at 50 uM after 2 hrs by microarray based transcriptional profiling relative to control
Candida parapsilosis [36] = experiment: Increase in CGD gene ortholog accession number orf19.6393 expression in Candida parapsilosis CLIB214 at 50 uM after 2 hrs by microarray based transcriptional profiling relative to control

In the case of `CC(C)=CCC/C(C)=C/CC/C(C)=C/CO` [FARNESOL], the “fold change (FC)” value (Candida parapsilosis [1]) is reported as 2.22, the “fold change (FC)” value (Candida parapsilosis [2]) is reported as 2.2 and the “fold change (FC)” value (Candida parapsilosis [3]) is reported as 2.03. The “fold change (FC)” value (Candida parapsilosis [4]) was 2.2, the “fold change (FC)” value (Candida parapsilosis [5]) was 1.72 and the “fold change (FC)” value (Candida parapsilosis [6]) was 1.56. The “fold change (FC)” value (Candida parapsilosis [7]) was 1.91, the “fold change (FC)” value (Candida parapsilosis [8]) was 1.91 and the “fold change (FC)” value (Candida parapsilosis [9]) was 1.6. For the same compound, the “fold change (FC)” value (Candida parapsilosis [10]) was 1.66, the “fold change (FC)” value (Candida parapsilosis [11]) was 1.66 and the “fold change (FC)” value (Candida parapsilosis [12]) was 1.67. For the same compound, the “fold change (FC)” value (Candida parapsilosis [13]) was 1.67, the “fold change (FC)” value (Candida parapsilosis [14]) was 1.88 and the “fold change (FC)” value (Candida parapsilosis [15]) was 1.82. For the same compound, the “fold change (FC)” value (Candida parapsilosis [16]) was 1.81, the “fold change (FC)” value (Candida parapsilosis [17]) was 3.81 and the “fold change (FC)” value (Candida parapsilosis [18]) was 3.55. The “fold change (FC)” value (Candida parapsilosis [19]) was 2.84, the “fold change (FC)” value (Candida parapsilosis [20]) was 1.7 and the “fold change (FC)” value (Candida parapsilosis [21]) was 1.67. The “fold change (FC)” value (Candida parapsilosis [22]) was 1.63, the “fold change (FC)” value (Candida parapsilosis [23]) was 1.62 and the “fold change (FC)” value (Candida parapsilosis [24]) was 1.67. For the same compound, the “fold change (FC)” value (Candida parapsilosis [25]) was 1.54, the “fold change (FC)” value (Candida parapsilosis [26]) was 1.54 and the “fold change (FC)” value (Candida parapsilosis [27]) was 1.55. The “fold change (FC)” value (Candida parapsilosis [28]) was 1.64, the “fold change (FC)” value (Candida parapsilosis [29]) was 1.65 and the “fold change (FC)” value (Candida parapsilosis [30]) was 1.69. The “fold change (FC)” value (Candida parapsilosis [31]) was 1.69, the “fold change (FC)” value (Candida parapsilosis [32]) was 1.72 and the “fold change (FC)” value (Candida parapsilosis [33]) was 1.78. For the same compound, the “fold change (FC)” value (Candida parapsilosis [34]) was 1.78, the “fold change (FC)” value (Candida parapsilosis [35]) was 1.88 and the “fold change (FC)” value (Candida parapsilosis [36]) was 1.6.
